Assay results as given in patent publication US10282841B1, “Bioinformatic analysis of vascular patterning” (The United States of America as Represented by the …, priority 2011, dated 2019).
Like-named read-outs stand apart in the source and are kept apart here. At least one compound was matched to its structure with a doubt left.

Tested on: avian chorioallantoic membrane
Assay type: in vivo
Text: To develop the VESGEN system mapping capabilities, proangiogenesis and antiangiogenesis factors were first studied in the avian chorioallantoic membrane, a well-established, experimentally convenient 2D, optically accessible model of microvascular remodeling, angiogenesis and angiogenesis therapeutics.

For `CC1(C)O[C@@H]2C[C@H]3[C@@H]4CCC5=CC(=O)C=C[C@]5(C)[C@@]4(F)[C@@H](O)C[C@]3(C)[C@]2(C(=O)CO)O1` [triamcinolone acetonide (TA), triamcinolone acetonide, reference compound], the “growth of small vessels” value was “inhibited the growth of small vessels”, the vessel diameters was “thinned the diameters of all vessels throughout the vascular tree except those of the smallest vessels” and the vessel diameters (listed as TA) was “unfavorable thinning of vessel diameters”.
